The assay has as its target T1, MDC1-[p]T752 biotinylated phosphopeptide (Biotin-SGS-…[p]TQPFCL-NH2) (human).
T1 sequence (peptide, biotin on the N-terminus; phosphothreonine at T752; C-terminal amide): SGSLDEPWEVLATQPFCL
Briefly: affinity purification with mass spectrometry; biotinylated peptide on streptavidin Dynabeads, incubated with HeLa nuclear extract 4 h at 4°C; on-bead trypsin digestion, LC-MS/MS; two independent experiments; only the target purified.

Results are given in words; binding and its absence hold for the method and conditions named. In cells and extracts the contact can be indirect. Here binding means that the protein was enriched with, or labelled near, the bait; the list need not be complete.

B1: Pellino 2 (endogenous, HeLa nuclear extract, identified by mass spectrometry) (protein, UniProt Q9HAT8 1-420)
chain: MFSPGQEEHCAPNKEPVKYGELVVLGYNGALPNGDRGRRKSRFALYKRPKANGVKPSTVHVISTPQASKAISCKGQHSISYTLSRNQTVVVEYTHDKDTDMFQVGRSTESPIDFVVTDTISGSQNTDEAQITQSTISRFACRIVCDRNEPYTARIFAAGFDSSKNIFLGEKAAKWKNPDGHMDGLTTNGVLVMHPRGGFTEESQPGVWREISVCGDVYTLRETRSAQQRGKLVESETNVLQDGSLIDLCGATLLWRTADGLFHTPTQKHIEALRQEINAARPQCPVGLNTLAFPSINRKEVVEEKQPWAYLSCGHVHGYHNWGHRSDTEANERECPMCRTVGPYVPLWLGCEAGFYVDAGPPTHAFTPCGHVCSEKSAKYWSQIPLPHGTHAFHAACPFCATQLVGEQNCIKLIFQGPID
B1: the binding entry is “binds”.

These data come from paper PMC11884936, “MDC1 mediates Pellino recruitment to sites of DNA double-strand breaks” (Life Science Alliance, 2025).
